The values below come from publication PMC12126495.

Chains of the proteins cited; added tags and fusions are not shown.
UniProt Q6PDQ2: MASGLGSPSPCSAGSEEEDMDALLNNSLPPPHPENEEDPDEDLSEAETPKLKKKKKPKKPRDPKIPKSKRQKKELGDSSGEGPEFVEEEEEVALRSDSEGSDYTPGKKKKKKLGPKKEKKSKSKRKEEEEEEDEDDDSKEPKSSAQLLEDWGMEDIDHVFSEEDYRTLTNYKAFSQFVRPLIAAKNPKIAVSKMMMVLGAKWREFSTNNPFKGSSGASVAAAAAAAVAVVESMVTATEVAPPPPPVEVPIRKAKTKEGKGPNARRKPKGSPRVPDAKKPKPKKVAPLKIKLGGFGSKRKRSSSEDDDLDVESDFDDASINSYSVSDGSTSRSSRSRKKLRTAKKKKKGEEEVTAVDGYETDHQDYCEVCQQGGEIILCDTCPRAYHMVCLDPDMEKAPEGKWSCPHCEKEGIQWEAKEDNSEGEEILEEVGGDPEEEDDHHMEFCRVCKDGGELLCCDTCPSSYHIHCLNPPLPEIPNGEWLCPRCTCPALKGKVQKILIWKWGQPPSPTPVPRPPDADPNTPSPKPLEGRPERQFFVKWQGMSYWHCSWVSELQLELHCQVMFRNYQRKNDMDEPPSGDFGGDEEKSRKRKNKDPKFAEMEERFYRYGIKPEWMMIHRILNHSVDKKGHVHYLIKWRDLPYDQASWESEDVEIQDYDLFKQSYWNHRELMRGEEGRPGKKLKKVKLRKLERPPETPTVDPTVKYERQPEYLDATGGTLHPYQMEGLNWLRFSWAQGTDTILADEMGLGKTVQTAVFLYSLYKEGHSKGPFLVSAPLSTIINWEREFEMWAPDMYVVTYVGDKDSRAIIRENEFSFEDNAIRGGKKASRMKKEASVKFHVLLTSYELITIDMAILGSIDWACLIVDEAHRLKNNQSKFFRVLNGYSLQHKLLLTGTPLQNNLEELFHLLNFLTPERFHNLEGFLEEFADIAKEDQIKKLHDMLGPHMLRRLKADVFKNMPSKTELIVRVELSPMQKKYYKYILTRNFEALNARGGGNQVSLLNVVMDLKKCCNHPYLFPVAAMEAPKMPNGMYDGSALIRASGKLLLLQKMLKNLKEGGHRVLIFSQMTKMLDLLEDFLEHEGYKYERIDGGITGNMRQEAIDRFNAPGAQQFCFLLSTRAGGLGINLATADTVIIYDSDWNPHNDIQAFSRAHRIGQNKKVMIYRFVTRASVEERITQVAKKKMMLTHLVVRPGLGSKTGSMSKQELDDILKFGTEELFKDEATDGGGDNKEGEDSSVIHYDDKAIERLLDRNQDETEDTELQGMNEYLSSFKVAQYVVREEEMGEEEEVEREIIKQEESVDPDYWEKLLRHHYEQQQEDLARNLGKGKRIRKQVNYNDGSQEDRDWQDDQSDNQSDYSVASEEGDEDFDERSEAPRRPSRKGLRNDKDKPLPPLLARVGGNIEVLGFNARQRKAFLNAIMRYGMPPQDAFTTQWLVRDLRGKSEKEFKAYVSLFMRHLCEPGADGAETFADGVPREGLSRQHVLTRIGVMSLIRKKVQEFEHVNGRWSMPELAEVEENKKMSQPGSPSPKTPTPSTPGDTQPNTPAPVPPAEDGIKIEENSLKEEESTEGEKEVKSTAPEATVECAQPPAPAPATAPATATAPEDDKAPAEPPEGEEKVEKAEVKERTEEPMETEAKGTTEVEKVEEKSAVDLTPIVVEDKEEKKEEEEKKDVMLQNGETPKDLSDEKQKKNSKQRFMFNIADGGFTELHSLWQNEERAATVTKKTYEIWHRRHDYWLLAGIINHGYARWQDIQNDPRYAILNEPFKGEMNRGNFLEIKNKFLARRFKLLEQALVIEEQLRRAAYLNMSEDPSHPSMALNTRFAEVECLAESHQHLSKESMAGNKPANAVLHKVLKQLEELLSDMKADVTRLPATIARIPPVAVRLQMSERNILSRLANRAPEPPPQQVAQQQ
UniProt Q61312: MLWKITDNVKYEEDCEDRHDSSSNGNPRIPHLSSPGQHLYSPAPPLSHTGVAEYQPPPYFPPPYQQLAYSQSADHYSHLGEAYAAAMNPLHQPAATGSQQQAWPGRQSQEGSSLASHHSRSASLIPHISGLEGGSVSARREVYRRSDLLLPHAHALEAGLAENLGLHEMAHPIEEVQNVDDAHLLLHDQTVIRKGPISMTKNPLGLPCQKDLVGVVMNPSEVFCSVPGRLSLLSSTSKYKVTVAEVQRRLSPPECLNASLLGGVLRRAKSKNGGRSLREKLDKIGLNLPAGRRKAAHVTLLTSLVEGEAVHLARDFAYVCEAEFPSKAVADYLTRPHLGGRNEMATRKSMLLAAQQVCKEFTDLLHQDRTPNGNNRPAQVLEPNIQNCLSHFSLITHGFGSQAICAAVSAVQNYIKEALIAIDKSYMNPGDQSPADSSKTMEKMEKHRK
UniProt Q3TKT4: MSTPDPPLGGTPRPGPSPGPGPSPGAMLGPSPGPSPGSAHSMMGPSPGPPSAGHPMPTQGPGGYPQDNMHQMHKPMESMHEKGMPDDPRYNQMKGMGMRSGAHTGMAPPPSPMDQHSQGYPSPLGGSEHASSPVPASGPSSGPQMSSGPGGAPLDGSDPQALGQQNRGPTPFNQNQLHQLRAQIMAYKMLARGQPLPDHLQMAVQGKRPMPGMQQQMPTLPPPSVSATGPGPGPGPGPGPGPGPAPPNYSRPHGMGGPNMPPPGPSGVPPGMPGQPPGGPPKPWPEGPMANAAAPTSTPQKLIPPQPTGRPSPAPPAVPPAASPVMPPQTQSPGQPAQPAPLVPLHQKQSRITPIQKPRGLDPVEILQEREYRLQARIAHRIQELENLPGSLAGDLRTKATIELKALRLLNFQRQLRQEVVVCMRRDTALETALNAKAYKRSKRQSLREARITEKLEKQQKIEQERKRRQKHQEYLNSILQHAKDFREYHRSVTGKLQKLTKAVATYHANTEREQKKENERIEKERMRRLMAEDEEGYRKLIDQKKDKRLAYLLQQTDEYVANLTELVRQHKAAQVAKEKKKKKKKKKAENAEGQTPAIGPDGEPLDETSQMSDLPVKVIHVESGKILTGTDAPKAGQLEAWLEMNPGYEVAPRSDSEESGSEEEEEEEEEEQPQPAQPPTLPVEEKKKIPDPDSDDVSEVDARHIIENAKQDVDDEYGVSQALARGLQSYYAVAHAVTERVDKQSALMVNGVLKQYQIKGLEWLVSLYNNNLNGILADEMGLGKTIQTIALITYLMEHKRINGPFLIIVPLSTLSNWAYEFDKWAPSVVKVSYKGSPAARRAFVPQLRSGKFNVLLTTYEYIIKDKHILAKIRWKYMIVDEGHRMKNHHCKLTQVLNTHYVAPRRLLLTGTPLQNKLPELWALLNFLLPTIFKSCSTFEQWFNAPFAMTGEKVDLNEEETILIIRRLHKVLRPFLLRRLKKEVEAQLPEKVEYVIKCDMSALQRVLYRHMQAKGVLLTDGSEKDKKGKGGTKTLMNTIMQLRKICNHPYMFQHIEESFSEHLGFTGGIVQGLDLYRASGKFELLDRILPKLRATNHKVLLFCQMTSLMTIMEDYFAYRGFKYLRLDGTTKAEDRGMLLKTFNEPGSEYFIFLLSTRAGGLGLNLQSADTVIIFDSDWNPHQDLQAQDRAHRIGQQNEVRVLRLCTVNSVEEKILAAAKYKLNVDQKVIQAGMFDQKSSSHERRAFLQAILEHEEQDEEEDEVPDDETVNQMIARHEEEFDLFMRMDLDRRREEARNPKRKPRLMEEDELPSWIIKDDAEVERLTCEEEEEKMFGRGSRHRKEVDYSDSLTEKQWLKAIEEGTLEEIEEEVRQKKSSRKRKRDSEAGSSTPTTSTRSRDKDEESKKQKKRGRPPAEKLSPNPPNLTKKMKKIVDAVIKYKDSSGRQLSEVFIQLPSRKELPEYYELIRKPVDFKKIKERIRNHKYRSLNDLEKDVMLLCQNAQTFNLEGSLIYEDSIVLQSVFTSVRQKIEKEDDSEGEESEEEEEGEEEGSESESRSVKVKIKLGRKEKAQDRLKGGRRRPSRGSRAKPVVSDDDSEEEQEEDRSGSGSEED
UniProt A2BH40: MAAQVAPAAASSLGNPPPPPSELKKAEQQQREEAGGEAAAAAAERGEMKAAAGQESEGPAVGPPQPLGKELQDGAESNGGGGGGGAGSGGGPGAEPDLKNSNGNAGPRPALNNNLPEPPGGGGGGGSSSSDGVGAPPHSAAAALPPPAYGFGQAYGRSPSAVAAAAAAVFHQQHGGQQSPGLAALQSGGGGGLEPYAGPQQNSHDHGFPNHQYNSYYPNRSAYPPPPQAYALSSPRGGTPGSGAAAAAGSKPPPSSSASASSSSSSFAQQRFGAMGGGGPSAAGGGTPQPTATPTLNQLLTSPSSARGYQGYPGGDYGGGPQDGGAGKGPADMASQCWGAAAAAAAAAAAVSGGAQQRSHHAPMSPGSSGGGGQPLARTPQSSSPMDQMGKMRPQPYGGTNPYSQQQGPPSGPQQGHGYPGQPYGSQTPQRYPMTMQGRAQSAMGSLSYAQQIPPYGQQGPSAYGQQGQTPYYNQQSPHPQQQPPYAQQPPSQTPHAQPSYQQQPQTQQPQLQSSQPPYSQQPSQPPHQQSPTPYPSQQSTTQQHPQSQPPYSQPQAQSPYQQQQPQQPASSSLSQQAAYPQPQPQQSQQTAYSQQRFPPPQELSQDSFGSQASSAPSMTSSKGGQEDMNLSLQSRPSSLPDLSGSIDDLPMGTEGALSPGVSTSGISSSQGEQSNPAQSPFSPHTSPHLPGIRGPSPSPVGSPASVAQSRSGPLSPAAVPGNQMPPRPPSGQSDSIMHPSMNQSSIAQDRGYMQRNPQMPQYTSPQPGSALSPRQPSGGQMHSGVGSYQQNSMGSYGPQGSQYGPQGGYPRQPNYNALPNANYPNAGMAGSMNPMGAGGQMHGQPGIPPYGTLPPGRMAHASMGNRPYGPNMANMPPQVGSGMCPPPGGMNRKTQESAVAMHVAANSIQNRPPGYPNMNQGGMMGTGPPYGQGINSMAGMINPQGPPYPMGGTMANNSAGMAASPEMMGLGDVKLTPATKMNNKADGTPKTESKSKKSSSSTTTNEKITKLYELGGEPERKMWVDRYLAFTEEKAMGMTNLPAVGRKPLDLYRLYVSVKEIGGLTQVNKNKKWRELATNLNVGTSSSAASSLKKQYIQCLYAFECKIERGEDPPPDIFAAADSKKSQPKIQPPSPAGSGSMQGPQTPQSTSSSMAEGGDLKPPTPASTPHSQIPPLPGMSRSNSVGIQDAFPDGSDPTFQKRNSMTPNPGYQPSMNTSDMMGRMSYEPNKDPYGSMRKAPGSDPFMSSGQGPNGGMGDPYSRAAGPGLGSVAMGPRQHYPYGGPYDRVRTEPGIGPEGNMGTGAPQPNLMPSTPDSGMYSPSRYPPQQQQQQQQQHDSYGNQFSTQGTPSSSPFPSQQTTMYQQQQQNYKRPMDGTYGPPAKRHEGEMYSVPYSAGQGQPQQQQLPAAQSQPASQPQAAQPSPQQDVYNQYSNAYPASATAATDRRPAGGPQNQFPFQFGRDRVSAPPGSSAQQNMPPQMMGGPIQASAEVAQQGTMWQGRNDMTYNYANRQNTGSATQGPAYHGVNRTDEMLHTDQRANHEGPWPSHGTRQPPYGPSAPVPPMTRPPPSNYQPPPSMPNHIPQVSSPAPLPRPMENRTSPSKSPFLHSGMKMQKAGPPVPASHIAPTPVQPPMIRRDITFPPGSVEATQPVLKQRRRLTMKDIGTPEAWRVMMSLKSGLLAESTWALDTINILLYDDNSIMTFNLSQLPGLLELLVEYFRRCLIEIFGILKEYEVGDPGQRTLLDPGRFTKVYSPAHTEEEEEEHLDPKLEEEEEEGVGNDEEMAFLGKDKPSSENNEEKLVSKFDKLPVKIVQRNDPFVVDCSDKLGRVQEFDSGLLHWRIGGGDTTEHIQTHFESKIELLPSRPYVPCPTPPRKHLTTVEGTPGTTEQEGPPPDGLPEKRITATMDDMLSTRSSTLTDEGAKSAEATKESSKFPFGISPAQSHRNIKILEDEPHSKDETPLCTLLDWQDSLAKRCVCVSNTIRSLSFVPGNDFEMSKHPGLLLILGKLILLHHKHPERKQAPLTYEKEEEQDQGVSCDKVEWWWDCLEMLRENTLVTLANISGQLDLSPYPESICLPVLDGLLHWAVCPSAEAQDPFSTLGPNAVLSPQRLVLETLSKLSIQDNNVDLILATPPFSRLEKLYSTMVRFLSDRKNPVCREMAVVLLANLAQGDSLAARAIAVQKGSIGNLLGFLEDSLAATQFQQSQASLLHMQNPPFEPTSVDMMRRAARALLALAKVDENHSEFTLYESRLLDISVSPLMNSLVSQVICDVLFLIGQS

Experiment [1] addresses T1, Eomesodermin/Tbr2 (Eomes) (mouse (endogenous in TSCs)) (UniProt O54839).
T1 sequence: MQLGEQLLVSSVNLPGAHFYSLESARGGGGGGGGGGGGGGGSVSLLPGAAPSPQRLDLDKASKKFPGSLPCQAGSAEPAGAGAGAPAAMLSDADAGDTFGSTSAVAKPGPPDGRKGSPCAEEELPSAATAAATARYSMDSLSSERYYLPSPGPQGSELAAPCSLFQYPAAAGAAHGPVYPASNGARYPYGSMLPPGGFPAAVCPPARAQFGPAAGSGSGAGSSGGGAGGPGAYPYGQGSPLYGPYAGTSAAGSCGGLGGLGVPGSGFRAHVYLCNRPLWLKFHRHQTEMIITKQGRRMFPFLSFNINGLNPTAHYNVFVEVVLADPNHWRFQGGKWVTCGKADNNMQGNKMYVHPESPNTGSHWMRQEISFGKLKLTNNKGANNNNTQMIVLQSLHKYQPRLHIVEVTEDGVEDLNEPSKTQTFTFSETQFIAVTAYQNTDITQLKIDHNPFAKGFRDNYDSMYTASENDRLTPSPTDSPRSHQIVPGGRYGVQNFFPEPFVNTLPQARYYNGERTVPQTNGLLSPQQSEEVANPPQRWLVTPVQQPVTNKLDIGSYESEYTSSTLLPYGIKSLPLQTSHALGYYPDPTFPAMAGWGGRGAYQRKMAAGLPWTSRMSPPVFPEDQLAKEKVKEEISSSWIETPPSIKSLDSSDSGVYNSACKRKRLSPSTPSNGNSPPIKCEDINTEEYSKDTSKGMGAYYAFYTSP
Briefly: affinity purification with mass spectrometry; RIME: wild-type TSCs fixed with 1% formaldehyde for 8 min at RT; 150 μg of pre-cleared chromatin immunoprecipitated with 15 μg of Eomes antibody (Abcam, ab23345) or rabbit IgG control; LC-MS/MS; 4 Eomes RIMEs alongside 2 IgG control RIMEs.

Experiment [2] concerns the target T2, Eomesodermin/Tbr2 (Eomes) (mouse (endogenous in TSCs)), O54839.
T2 chain: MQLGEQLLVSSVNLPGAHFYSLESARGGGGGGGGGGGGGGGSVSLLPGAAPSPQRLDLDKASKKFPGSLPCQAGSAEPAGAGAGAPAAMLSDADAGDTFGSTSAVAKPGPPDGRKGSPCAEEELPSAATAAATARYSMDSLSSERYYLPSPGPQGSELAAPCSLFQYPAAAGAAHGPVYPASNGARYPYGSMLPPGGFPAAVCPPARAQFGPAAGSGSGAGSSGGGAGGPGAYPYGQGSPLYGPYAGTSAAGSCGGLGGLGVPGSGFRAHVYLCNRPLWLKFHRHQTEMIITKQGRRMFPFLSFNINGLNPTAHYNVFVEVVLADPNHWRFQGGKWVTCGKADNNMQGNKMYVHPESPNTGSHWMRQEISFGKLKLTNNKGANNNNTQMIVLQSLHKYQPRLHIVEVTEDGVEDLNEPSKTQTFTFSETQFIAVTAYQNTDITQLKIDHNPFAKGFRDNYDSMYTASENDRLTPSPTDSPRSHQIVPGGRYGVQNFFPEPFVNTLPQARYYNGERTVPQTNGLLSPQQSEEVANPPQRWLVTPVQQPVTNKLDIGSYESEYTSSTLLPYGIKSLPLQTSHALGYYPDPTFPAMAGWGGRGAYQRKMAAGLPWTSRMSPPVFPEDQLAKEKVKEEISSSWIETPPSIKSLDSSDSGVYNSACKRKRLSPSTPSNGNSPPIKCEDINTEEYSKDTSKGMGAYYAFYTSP
The description is as above. The conditions noted are these: remark: other sources report otherwise.

No constants are given. Whether binding was seen depends on the method and setting. Binding seen in cells or lysates may run through a third protein. Here binding means that the protein was enriched with, or labelled near, the bait; the list need not be complete.

As to Chd4 (from UniProt Q6PDQ2 1-1915), in experiment [1], the binding result was “binds”.

For Klf5 (from UniProt Q9Z0Z7 1-446), in experiment [1], the binding result is “binds”. On to “Tfap2c (Ap2γ) (from UniProt Q61312 1-449)”, for which, in experiment [1], the binding entry was “binds”.

Turning to “Brg1 (Smarca4) (from UniProt Q3TKT4 1-1613)”, the binding entry in experiment [1] was “binds”.

Turning to Smarcd2 (from UniProt Q99JR8 1-531), the binding entry in experiment [1] was “binds”.

In the case of Arid1a (from UniProt A2BH40 1-2283), the binding result in experiment [1] was “binds”. Still for that read-out and setting: to Smarcc1 (from UniProt P97496 1-1104) belongs “binds”.

B1: Zfp281 (protein, UniProt Q99LI5 1-893)
chain: MKIGSGFLSGGGGPSSSGGSGSGGSSGSASGGSGGGRRAEMEPTFPQSMVMFNHRLPPVTSFTRPAGTAAPPPQCVLSSSTSAAPAAEPPPPPAPDMTFKKEPAASAAAFPSQRTSWGFLQSLVSIKQEKPADPEEQPSHHHHHHHHYGGLFAGAEERSPGLGGGEGGSHGVIQDLSLLHQHAQQQPAQHHRDVLLSSGSRTDEHGNQEPKQDANVKKAKRPKPESQGIKAKRKPSASSKPLVGEGEGAVLSPSQKPHICDHCSAAFRSSYHLRRHVLIHTGERPFQCSQCSMGFIQKYLLQRHEKIHSREKPFGCDQCSMKFIQKYHMERHKRTHSGEKPYKCDTCQQYFSRTDRLLKHRRTCGEAIAKGAASAEPGSSNHNSMGNLAVLSQGNTSSSRRKSKSKSIAIENKEHKTGKTNESQMSNNINMQSYSVEMPTVSTSGSIIGTGIDELQKRVPKLIFKKGSRKNADKSYLNFVSPLPDVVGQKSLSGKPGGSLGIVSNNSVETISLLQSTSGKQGPISSNYDDAMQFSKKRRYLPTASSNSAFSINVGHMVSQQSVIQSAGVSVLDNEAPLSLIDSSALNAEIKSCHDKSGIPDEVLQSILDQYSGKSETQKEDPFNLTEPRVDLHTSGEHSELVQEENLSPGTQTPSNDKTSMLQEYSKYLQQAFEKSTNAGFTLGHGFQFVSLSSPLHNHTLFPEKQIYTTSPLECGFGQSVTSVLPSSLPKPPFGMLFGSQPGLYLSALDATHQQLTPSQELDDLIDSQKNLETSSAFQSSSQKLTSQKEQQKNLESSTSFQIPSQELASQIDPQKDIEPRTTYQIENFAQAFGSQFKSGSRVPMTFITNSNGEVDHRVRTSVSDFSGYTNMMSDVSEPCSTRVKTPTSQSYR
For the molecule B1, the binding entry in experiment [1] is given as “binds”.

B2: Pou3f1 (Oct6) (protein, UniProt P21952 1-449)
chain: MATTAQYLPRGPGGGAGGTGPLMHPDAAAAAAAAAERLHAGAAYREVQKLMHHEWLGAGAGHPVGLAHPQWLPTGGGGGGDWAGGPHLEHGKAGGGGTGRADDGGGGGGFHARLVHQGAAHAGAAWAQGGTAHHLGPAMSPSPGAGGGHQPQPLGLYAQAAYPGGGGGGLAGMLAAGGGGAGPGLHHALHEDGHEAQLEPSPPPHLGAHGHAHGHAHAGGLHAAAAHLHPGAGGGGSSVGEHSDEDAPSSDDLEQFAKQFKQRRIKLGFTQADVGLALGTLYGNVFSQTTICRFEALQLSFKNMCKLKPLLNKWLEETDSSSGSPTNLDKIAAQGRKRKKRTSIEVGVKGALESHFLKCPKPSAHEITGLADSLQLEKEVVRVWFCNRRQKEKRMTPAAGAGHPPMDDVYAPGELGPGGGSASPPSAPPPPPPAALHHHHHHTLPGSVQ
Regarding B2, the binding result in experiment [1] is “binds”.

B3: Smarcd1, Q61466 1-515 (protein)
chain: MAARAGFQSVAPSGGAGASGGAGVAAALGPGGTPGPPVRMGPAPGQGLYRSPMPGAAYPRPGMLPGSRMTPQGPSMGPPGYGGNPSVRPGLAQSGMDQSRKRPAPQQIQQVQQQAVQNRNHNAKKKKMADKILPQRIRELVPESQAYMDLLAFERKLDQTIMRKRLDIQEALKRPIKQKRKLRIFISNTFNPAKSDAEDGEGTVASWELRVEGRLLEDAALSKYDATKQKRKFSSFFKSLVIELDKDLYGPDNHLVEWHRTATTQETDGFQVKRPGDVNVRCTVLLMLDYQPPQFKLDPRLARLLGIHTQTRPVIIQALWQYIKTHKLQDPHEREFVLCDKYLQQIFESQRMKFSEIPQRLHALLMPPEPIIINHVISVDPNDQKKTACYDIDVEVDDTLKTQMNSFLLSTASQQEIATLDNKIHETIETINQLKTQREFMLSFARDPQGFINDWLQSQCRDLKTMTDVVGNPEEERRAEFYFQPWAQEAVCRYFYSKVQQRRQELEQALGIRNT
In the case of B3, the binding result in experiment [2] is “binds”.
